These are yes or no findings as the source states them, for the method shown. Binding seen in cells or lysates may run through a third protein. Some entries that bind do so weakly or less than the wild type. For some assays here: Sequences can lack the tags named with a protein.
Tests used:
Test in all cases: co-IP
[1] = biological target: T1, C-terminally TAP-tagged Tif4631p (S. cerevisiae) (UniProt P39935)
T1 sequence: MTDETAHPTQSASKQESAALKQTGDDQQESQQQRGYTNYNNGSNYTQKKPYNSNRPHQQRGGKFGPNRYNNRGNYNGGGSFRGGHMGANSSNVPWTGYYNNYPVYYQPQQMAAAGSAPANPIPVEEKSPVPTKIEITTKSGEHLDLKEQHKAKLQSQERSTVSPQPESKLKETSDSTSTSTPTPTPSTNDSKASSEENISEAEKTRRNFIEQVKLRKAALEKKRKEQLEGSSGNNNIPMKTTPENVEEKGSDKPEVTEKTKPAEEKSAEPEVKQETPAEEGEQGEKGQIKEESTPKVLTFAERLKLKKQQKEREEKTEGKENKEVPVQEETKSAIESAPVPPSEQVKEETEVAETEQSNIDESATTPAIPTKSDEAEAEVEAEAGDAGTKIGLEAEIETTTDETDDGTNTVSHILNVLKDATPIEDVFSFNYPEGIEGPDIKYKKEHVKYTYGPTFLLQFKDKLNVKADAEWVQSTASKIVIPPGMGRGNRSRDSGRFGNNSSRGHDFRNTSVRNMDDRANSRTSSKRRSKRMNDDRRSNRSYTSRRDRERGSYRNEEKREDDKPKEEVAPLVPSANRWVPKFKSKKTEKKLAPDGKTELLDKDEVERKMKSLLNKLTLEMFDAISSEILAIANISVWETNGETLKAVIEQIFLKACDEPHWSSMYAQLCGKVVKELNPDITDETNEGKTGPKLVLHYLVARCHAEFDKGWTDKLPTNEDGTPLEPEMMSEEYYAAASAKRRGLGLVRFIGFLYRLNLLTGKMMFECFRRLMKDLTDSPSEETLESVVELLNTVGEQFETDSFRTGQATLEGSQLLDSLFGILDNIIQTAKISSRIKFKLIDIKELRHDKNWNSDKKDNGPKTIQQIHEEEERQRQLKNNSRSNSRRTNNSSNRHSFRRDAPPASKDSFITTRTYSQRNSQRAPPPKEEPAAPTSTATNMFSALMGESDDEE

Sequences of proteins named here, by UniProt entry; tags and fusion partners are left off.
UniProt P24783: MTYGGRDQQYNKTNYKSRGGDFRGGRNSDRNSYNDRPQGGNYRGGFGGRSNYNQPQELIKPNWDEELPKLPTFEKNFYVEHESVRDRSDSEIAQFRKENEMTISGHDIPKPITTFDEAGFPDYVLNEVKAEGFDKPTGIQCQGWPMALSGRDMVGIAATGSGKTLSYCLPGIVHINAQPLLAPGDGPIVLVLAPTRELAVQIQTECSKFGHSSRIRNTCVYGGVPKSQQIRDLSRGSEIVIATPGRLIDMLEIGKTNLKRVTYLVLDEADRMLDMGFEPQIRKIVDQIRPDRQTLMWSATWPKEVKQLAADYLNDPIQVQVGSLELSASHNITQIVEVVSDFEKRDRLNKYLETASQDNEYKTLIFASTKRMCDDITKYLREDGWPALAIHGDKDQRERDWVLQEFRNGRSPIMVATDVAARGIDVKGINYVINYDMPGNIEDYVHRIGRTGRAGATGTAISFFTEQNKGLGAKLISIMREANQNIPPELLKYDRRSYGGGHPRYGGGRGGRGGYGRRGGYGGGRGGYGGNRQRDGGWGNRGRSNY

[2] = biological target: T2, Upf3p-HA (S. cerevisiae) (UniProt P48412)
T2 sequence: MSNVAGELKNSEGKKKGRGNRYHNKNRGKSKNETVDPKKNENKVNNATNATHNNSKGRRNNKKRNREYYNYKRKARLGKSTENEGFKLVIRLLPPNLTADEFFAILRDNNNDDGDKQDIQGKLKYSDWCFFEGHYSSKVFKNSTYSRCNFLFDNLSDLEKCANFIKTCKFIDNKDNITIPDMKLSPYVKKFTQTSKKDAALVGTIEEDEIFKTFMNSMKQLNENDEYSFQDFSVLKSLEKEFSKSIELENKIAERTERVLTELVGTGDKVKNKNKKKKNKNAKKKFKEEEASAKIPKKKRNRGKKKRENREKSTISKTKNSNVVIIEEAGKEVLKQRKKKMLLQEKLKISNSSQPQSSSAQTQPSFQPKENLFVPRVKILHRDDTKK

[3] = biological target: T3, C-terminally TAP-tagged Cbc1p (S. cerevisiae) (UniProt P34160)
T3 sequence: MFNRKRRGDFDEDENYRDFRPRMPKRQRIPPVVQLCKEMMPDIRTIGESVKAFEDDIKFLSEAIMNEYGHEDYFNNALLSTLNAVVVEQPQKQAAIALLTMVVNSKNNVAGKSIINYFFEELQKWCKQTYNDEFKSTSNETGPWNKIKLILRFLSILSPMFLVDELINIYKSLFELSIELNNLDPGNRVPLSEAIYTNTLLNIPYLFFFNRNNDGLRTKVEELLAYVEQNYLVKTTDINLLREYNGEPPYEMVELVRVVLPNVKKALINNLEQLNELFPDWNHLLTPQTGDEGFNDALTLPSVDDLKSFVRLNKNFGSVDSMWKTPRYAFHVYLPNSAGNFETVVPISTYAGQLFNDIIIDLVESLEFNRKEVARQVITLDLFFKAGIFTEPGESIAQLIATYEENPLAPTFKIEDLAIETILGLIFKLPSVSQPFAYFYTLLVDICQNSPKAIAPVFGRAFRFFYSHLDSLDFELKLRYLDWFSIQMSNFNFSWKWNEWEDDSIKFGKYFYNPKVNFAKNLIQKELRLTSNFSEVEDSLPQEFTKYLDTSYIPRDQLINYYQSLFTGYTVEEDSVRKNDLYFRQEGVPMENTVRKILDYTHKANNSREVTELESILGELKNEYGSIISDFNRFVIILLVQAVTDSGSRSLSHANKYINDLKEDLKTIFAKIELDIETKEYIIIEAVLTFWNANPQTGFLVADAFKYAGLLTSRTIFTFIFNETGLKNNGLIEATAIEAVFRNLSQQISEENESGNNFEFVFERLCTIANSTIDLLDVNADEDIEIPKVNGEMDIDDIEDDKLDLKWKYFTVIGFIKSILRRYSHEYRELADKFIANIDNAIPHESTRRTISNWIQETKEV

[4] = biological target: C-terminally FLAG-tagged Dbp2p (S. cerevisiae) (UniProt P24783)
[5] = biological target: T4, TAP-tagged Tif4631p-ΔRRM1 (S. cerevisiae) (UniProt P39935)
T4 sequence: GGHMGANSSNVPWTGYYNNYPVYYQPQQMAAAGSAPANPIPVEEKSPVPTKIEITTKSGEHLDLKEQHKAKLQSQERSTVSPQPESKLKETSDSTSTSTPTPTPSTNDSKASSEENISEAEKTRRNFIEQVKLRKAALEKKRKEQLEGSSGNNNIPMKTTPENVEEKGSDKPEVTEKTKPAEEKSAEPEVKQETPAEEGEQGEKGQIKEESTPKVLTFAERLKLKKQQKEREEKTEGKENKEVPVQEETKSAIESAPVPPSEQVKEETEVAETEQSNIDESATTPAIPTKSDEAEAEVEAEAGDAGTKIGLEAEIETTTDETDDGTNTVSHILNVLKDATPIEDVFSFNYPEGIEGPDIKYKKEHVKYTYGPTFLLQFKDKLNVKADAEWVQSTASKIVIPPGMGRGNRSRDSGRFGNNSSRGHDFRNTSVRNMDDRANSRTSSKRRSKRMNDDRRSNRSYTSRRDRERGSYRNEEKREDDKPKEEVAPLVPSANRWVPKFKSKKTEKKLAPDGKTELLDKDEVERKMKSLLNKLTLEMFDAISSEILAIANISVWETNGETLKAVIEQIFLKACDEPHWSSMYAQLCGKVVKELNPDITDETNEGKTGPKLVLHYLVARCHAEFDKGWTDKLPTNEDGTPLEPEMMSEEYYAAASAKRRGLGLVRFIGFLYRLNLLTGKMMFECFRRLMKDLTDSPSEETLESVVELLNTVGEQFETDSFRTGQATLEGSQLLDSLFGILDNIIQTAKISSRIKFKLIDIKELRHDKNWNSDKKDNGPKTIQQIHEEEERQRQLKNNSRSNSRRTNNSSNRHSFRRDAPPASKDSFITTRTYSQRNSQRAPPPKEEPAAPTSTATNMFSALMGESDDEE

Measured: binding

Dbp2p (from UniProt P24783 1-546)
binds: [1] | [2] | [3]

B1: Cbc1p (protein, UniProt P34160 1-861)
chain: MFNRKRRGDFDEDENYRDFRPRMPKRQRIPPVVQLCKEMMPDIRTIGESVKAFEDDIKFLSEAIMNEYGHEDYFNNALLSTLNAVVVEQPQKQAAIALLTMVVNSKNNVAGKSIINYFFEELQKWCKQTYNDEFKSTSNETGPWNKIKLILRFLSILSPMFLVDELINIYKSLFELSIELNNLDPGNRVPLSEAIYTNTLLNIPYLFFFNRNNDGLRTKVEELLAYVEQNYLVKTTDINLLREYNGEPPYEMVELVRVVLPNVKKALINNLEQLNELFPDWNHLLTPQTGDEGFNDALTLPSVDDLKSFVRLNKNFGSVDSMWKTPRYAFHVYLPNSAGNFETVVPISTYAGQLFNDIIIDLVESLEFNRKEVARQVITLDLFFKAGIFTEPGESIAQLIATYEENPLAPTFKIEDLAIETILGLIFKLPSVSQPFAYFYTLLVDICQNSPKAIAPVFGRAFRFFYSHLDSLDFELKLRYLDWFSIQMSNFNFSWKWNEWEDDSIKFGKYFYNPKVNFAKNLIQKELRLTSNFSEVEDSLPQEFTKYLDTSYIPRDQLINYYQSLFTGYTVEEDSVRKNDLYFRQEGVPMENTVRKILDYTHKANNSREVTELESILGELKNEYGSIISDFNRFVIILLVQAVTDSGSRSLSHANKYINDLKEDLKTIFAKIELDIETKEYIIIEAVLTFWNANPQTGFLVADAFKYAGLLTSRTIFTFIFNETGLKNNGLIEATAIEAVFRNLSQQISEENESGNNFEFVFERLCTIANSTIDLLDVNADEDIEIPKVNGEMDIDDIEDDKLDLKWKYFTVIGFIKSILRRYSHEYRELADKFIANIDNAIPHESTRRTISNWIQETKEV
binds: [1] | [4] | [2]

B2: Nrd1p (protein, UniProt P53617 1-575)
chain: MQQDDDFQNFVATLESFKDLKSGISGSRIKKLTTYALDHIDIESKIISLIIDYSRLCPDSHKLGSLYIIDSIGRAYLDETRSNSNSSSNKPGTCAHAINTLGEVIQELLSDAIAKSNQDHKEKIRMLLDIWDRSGLFQKSYLNAIRSKCFAMDISNNTANTASQQLSLDPKQRSKQILSNLKKSPPLNLNISLPTDLTSTDPAKQQAALFQVIAALQKHFKTLPSHTSVGTVAPPQAHTITEYGSRRERERERERYNSRRNRSRSPPAPFSQPSTGRKDRYPSVAQDQYSIGAPNTTFGTNNHHLYPDELNVSNNPHYRPKPVSYDSTLPPDHIKVYSRTLFIGGVPLNMKEWDLANVLKPFAEVQSVILNNSRKHAFVKVYSRHEAENVLQNFNKDGALPLRTRWGVGFGPRDCCDYQHGYSIIPMHRLTDADKKWSVSAQWGGTSGQPLVTGIVFEEPDIIVGEGVSSKAISQKMPTDSGRNGPRSGKPNKSGSISSISPVPYGNAPLASPPPQQYVQPMMQQPYGYAPNQPLPSQGPAAAAPPVPQQQFDPTAQLNSLMNMLNQQQQQQQQS
binds: all assays above

B3: Upf3p (protein, UniProt P48412 1-387)
chain: MSNVAGELKNSEGKKKGRGNRYHNKNRGKSKNETVDPKKNENKVNNATNATHNNSKGRRNNKKRNREYYNYKRKARLGKSTENEGFKLVIRLLPPNLTADEFFAILRDNNNDDGDKQDIQGKLKYSDWCFFEGHYSSKVFKNSTYSRCNFLFDNLSDLEKCANFIKTCKFIDNKDNITIPDMKLSPYVKKFTQTSKKDAALVGTIEEDEIFKTFMNSMKQLNENDEYSFQDFSVLKSLEKEFSKSIELENKIAERTERVLTELVGTGDKVKNKNKKKKNKNAKKKFKEEEASAKIPKKKRNRGKKKRENREKSTISKTKNSNVVIIEEAGKEVLKQRKKKMLLQEKLKISNSSQPQSSSAQTQPSFQPKENLFVPRVKILHRDDTKK
binds: [1] | [4] | [3]
